Data as given in paper doi:10.1101/2020.06.08.140590.
Results are given in words; binding and its absence hold for the method and conditions named. In cells and extracts the contact can be indirect. Some binding calls cover weakened binding; strength is not graded here.

B1: TRBP (TAR RNA binding protein), endogenous (protein, UniProt Q15633 1-366)
chain: MSEEEQGSGTTTGCGLPSIEQMLAANPGKTPISLLQEYGTRIGKTPVYDLLKAEGQAHQPNFTFRVTVGDTSCTGQGPSKKAAKHKAAEVALKHLKGGSMLEPALEDSSSFSPLDSSLPEDIPVFTAAAAATPVPSVVLTRSPPMELQPPVSPQQSECNPVGALQELVVQKGWRLPEYTVTQESGPAHRKEFTMTCRVERFIEIGSGTSKKLAKRNAAAKMLLRVHTVPLDARDGNEVEPDDDHFSIGVGSRLDGLRNRGPGCTWDSLRNSVGEKILSLRSCSLGSLGALGPACCRVLSELSEEQAFHVSYLDIEELSLSGLCQCLVELSTQPATVCHGSATTREAARGEAARRALQYLKIMAGSK
B2: TRBP (TAR RNA binding protein), endogenous, Q15633 1-366 (protein)
chain: B1 chain

Key:
[1] = molecular target: HA-Ago1 (FLAG/HA-tagged Argonaute 1) (human) (UniProt Q9UL18); assay: co-IP
[2] = molecular target: HA-Ago2 (FLAG/HA-tagged Argonaute 2) (human), Q9UKV8; assay: co-IP; conditions: remark: other sources report otherwise

| Binder | binding [1] | binding [2] |
| --- | --- | --- |
| B1 | binds | – |
| B2 | – | binds |
